According to patent US6541453B2, “Peptide derivatives” (Syngenta Limited, priority 1996, dated 2003):
Part of at least one peptide drawing is inferred or uncertain, most often the ends. At least one structure is not confirmed: it was looked up by name or label, or the drawing left a doubt. Some of these results come from one statement about several compounds together.

Assays:
HLA-DR4Dw14 = experiment: Variant to Test A: peptide selectivity binding assay; parameters: species or system human
HLA-DR2 = experiment: as above; parameters: species or system human; details: no significant binding
HLA-DR3 = experiment: as above; parameters: species or system human; details: no significant binding
BALB/C mice = experiment: Test C: peptide stimulated DTH (delayed type hypersensitivity) in BALB/C mice; format: in vivo; details: osmotic mini-pump, ovalbumin challenge, footpad swelling

Structure (SMILES)	binding to HLA-DR4Dw14 (HLA-DR4Dw14)	IC50 (HLA-DR2) [µM]	IC50 (HLA-DR3) [µM]	dose showing activity / significant inhibition of DTH response (BALB/C mice) [mg/kg/day]
COCCN(CCOC)C(=O)CN(CC(=O)N(CCOC)CCOC)C(=O)C[C@H](NC(=O)[C@H](C)NC(=O)[C@H](CCCNC(=N)N)NC(=O)[C@H](C)NC(=O)CCCCc1ccccc1)C(=O)N[C@H](C(=O)N[C@@H]1CCN([C@@H](C)C(=O)N[C@@H](C)C(=O)Nc2ccc(CC(N)=O)cc2)C1=O)[C@@H](C)O [Example 3, Phv-Ala-Arg-Ala-II-Thr-IIIa-Ala-Papa-NH2]	significant binding	> 100	> 100	< 0.1
COCCOCCOCCN(CCOCCOCCOC)C(=O)CN(CC(=O)N(CCOCCOCCOC)CCOCCOCCOC)C(=O)C[C@H](NC(=O)[C@H](C)NC(=O)[C@H](C)NC(=O)[C@H](CCCNC(=N)N)NC(=O)CCCCc1ccccc1)C(=O)N[C@H](C(=O)N[C@@H]1CCN([C@@H](C)C(=O)N[C@@H](C)C(=O)Nc2ccc(CC(N)=O)cc2)C1=O)[C@@H](C)O [Example 6, Phv-Arg-Ala-Ala-II-Thr-IIIa-Ala-Papa-NH2]		> 100	> 100	< 0.1
